Holding throughout (conditions): yeast three-hybrid, YBZ-1, SC-Leu-His + 0.5 mM 3-AT, 4 days
Experiment [1] concerns the target T1, PUM1 PUF domain R2-VFQ R3-THE R4-TFR N899V + Y900F + C935T + R936H + Q939E + N971T + H972F + Q975R (UniProt Q14671).
T1 sequence: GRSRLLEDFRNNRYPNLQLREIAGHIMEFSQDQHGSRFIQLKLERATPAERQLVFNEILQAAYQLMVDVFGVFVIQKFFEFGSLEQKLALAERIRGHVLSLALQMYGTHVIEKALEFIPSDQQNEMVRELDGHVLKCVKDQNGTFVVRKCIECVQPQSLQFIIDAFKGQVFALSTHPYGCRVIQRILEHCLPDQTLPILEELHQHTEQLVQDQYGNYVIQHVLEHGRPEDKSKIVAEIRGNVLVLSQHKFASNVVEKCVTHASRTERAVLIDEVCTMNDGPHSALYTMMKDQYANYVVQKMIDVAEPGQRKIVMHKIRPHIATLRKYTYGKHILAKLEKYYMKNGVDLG

Experiment [2] deals with T2, PUM1 PUF domain R5-PHQ R6-SWD C1007P + R1008H + N1043S + Y1044W + Q1047D (UniProt Q14671).
T2 sequence: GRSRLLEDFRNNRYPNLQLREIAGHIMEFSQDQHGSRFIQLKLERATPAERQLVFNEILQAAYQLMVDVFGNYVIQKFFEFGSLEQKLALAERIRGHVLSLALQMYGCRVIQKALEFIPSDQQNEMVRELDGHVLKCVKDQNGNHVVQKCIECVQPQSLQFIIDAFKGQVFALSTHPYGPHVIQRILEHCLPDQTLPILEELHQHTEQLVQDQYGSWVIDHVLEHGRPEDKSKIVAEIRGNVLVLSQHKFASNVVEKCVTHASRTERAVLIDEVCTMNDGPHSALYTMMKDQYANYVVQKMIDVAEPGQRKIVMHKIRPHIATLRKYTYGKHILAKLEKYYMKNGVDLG

In experiment [3] the target is T3, PUM1 PUF domain R6-SWD R7-NPG N1043S + Y1044W + Q1047D + S1079N + N1080P + E1083G (UniProt Q14671).
T3 sequence: T2 sequence with P180C, H181R, S252N, N253P, E256G

For experiment [4], the target named is T4, PUM1 PUF domain R6-SWD R7-NPG N1043S + Y1044W + Q1047D + S1079N + N1080P + E1083G (Homo sapiens) (UniProt Q14671).
T4 sequence: T2 sequence with P180C, H181R, S252N, N253P, E256G

Experiment [5] deals with T5, PUM1 PUF domain R3-THE R4-TFR C935T + R936H + Q939E + N971T + H972F + Q975R (UniProt Q14671).
T5 sequence: T1 sequence with V72N, F73Y

Residue numbers refer to the chain shown, from its start. The list shows a part of the results. For part of these data: At the low end of the ranking the order means little. For part of these data: The source does not settle which construct or isoform was used. Bounds are passed on as bounds.

As to “GGCUAGAACUAGUGGAUCCCCCGGCGCCCGGCGGCUCGAGCCCGGGUAAGUUGAACUCGUCUGCAUGCCGCCGGGCGCCAUGCCUGCAGGUCGACUCUAGAAAACAUG”, the figures for the binding signal (log2 enrichment (interaction score)) in experiment [1], in experiment [2] and in experiment [3] were -5.03, -9.02 and -2.32, respectively.

As to “GGCUAGAACUAGUGGAUCCCCCGGCGCCCGGCGGCUCGAGCCCGGGUAAGUAGAGUCCGUCUGCAUGCCGCCGGGCGCCAUGCCUGCAGGUCGACUCUAGAAAACAUG”, the binding signal (log2 enrichment (interaction score)) in experiment [1] is -5.24; in experiment [4], -0.6.

In the case of “GGCUAGAACUAGUGGAUCCCCCGGCGCCCGGCGGCUCGAGCCCGGGUAAGUUCCAGAAGUCUGCAUGCCGCCGGGCGCCAUGCCUGCAGGUCGACUCUAGAAAACAUG”, the binding signal (log2 enrichment (interaction score)) is -5.45 in experiment [1] and -1.6 in experiment [4].

With “GGCUAGAACUAGUGGAUCCCCCGGCGCCCGGCGGCUCGAGCCCGGGUAAGUGCGAUAGGUCUGCAUGCCGCCGGGCGCCAUGCCUGCAGGUCGACUCUAGAAAACAUG”, the binding signal (log2 enrichment (interaction score)) in experiment [1] is -5.37; in experiment [4], -0.52.

As for “GGCUAGAACUAGUGGAUCCCCCGGCGCCCGGCGGCUCGAGCCCGGGUAAGCUGGAGAAGUCUGCAUGCCGCCGGGCGCCAUGCCUGCAGGUCGACUCUAGAAAACAUG”, the binding signal (log2 enrichment (interaction score)) in experiment [1] was -5.47; in experiment [4] it was below -0.81.

For “GGCUAGAACUAGUGGAUCCCCCGGCGCCCGGCGGCUCGAGCCCGGGUAAGGUUAAACAGUCUGCAUGCCGCCGGGCGCCAUGCCUGCAGGUCGACUCUAGAAAACAUG”, the binding signal (log2 enrichment (interaction score)) was -5.49 in experiment [1], below -7.65 in experiment [2] and -1.89 in experiment [4].

With “GGCUAGAACUAGUGGAUCCCCCGGCGCCCGGCGGCUCGAGCCCGGGUAAGAGUAAACUGUCUGCAUGCCGCCGGGCGCCAUGCCUGCAGGUCGACUCUAGAAAACAUG”, the binding signal (log2 enrichment (interaction score)) in experiment [1] was -4.89; in experiment [2], below -7.16.

With “GGCUAGAACUAGUGGAUCCCCCGGCGCCCGGCGGCUCGAGCCCGGGUAAGGGGACAACGUCUGCAUGCCGCCGGGCGCCAUGCCUGCAGGUCGACUCUAGAAAACAUG”, the binding signal (log2 enrichment (interaction score)) was -5.89 in experiment [1] and below -7.73 in experiment [2].

As to “GGCUAGAACUAGUGGAUCCCCCGGCGCCCGGCGGCUCGAGCCCGGGUAAGAAUAGUAAGUCUGCAUGCCGCCGGGCGCCAUGCCUGCAGGUCGACUCUAGAAAACAUG”, in experiment [5], the binding signal (log2 enrichment (interaction score)) was below -7.56.

Regarding “GGCUAGAACUAGUGGAUCCCCCGGCGCCCGGCGGCUCGAGCCCGGGUAAGUGGUUACUGUCUGCAUGCCGCCGGGCGCCAUGCCUGCAGGUCGACUCUAGAAAACAUG”, the results for the binding signal (log2 enrichment (interaction score)) in experiment [1] and in experiment [2] were -5.32 and below -7.16, respectively.

For the sequence “GGCUAGAACUAGUGGAUCCCCCGGCGCCCGGCGGCUCGAGCCCGGGUAAGUUGGAACAGUCUGCAUGCCGCCGGGCGCCAUGCCUGCAGGUCGACUCUAGAAAACAUG”, the binding signal (log2 enrichment (interaction score)) in experiment [1] was -6.71; in experiment [2], below -7.97.

Turning to “GGCUAGAACUAGUGGAUCCCCCGGCGCCCGGCGGCUCGAGCCCGGGUAAGUUCGUGAAGUCUGCAUGCCGCCGGGCGCCAUGCCUGCAGGUCGACUCUAGAAAACAUG”, the binding signal (log2 enrichment (interaction score)) in experiment [1] is -5.19; in experiment [4] it was -1.04.

With “GGCUAGAACUAGUGGAUCCCCCGGCGCCCGGCGGCUCGAGCCCGGGUAAGUGUGAAAGGUCUGCAUGCCGCCGGGCGCCAUGCCUGCAGGUCGACUCUAGAAAACAUG”, the values for the binding signal (log2 enrichment (interaction score)) in experiment [1] and in experiment [2] were -5.18 and below -7.25, respectively.

For the sequence “GGCUAGAACUAGUGGAUCCCCCGGCGCCCGGCGGCUCGAGCCCGGGUAAGGGUAAGAAGUCUGCAUGCCGCCGGGCGCCAUGCCUGCAGGUCGACUCUAGAAAACAUG”, the binding signal (log2 enrichment (interaction score)) is -6.2 in experiment [1] and below -7.66 in experiment [2].

As for “GGCUAGAACUAGUGGAUCCCCCGGCGCCCGGCGGCUCGAGCCCGGGUAAGGCGAAGUAGUCUGCAUGCCGCCGGGCGCCAUGCCUGCAGGUCGACUCUAGAAAACAUG”, the binding signal (log2 enrichment (interaction score)) in experiment [1] is -6.45; in experiment [2], below -7.4.

For “GGCUAGAACUAGUGGAUCCCCCGGCGCCCGGCGGCUCGAGCCCGGGUAAGUGGUAAUCGUCUGCAUGCCGCCGGGCGCCAUGCCUGCAGGUCGACUCUAGAAAACAUG”, the binding signal (log2 enrichment (interaction score)) in experiment [1] is -5.44; in experiment [2], -6.59.

For the sequence “GGCUAGAACUAGUGGAUCCCCCGGCGCCCGGCGGCUCGAGCCCGGGUAAGAAUAAAGAGUCUGCAUGCCGCCGGGCGCCAUGCCUGCAGGUCGACUCUAGAAAACAUG”, the binding signal (log2 enrichment (interaction score)) in experiment [1] is -5.56; in experiment [2], below -7.57; in experiment [3] it was -2.22.

For “GGCUAGAACUAGUGGAUCCCCCGGCGCCCGGCGGCUCGAGCCCGGGUAAGUUGUUGACGUCUGCAUGCCGCCGGGCGCCAUGCCUGCAGGUCGACUCUAGAAAACAUG”, the binding signal (log2 enrichment (interaction score)) is -6.14 in experiment [1] and -1.58 in experiment [4].

Turning to “GGCUAGAACUAGUGGAUCCCCCGGCGCCCGGCGGCUCGAGCCCGGGUAAGUCUCACUUGUCUGCAUGCCGCCGGGCGCCAUGCCUGCAGGUCGACUCUAGAAAACAUG”, the binding signal (log2 enrichment (interaction score)) in experiment [5] was -7.39.

For “GGCUAGAACUAGUGGAUCCCCCGGCGCCCGGCGGCUCGAGCCCGGGUAAGAUCAAAUAGUCUGCAUGCCGCCGGGCGCCAUGCCUGCAGGUCGACUCUAGAAAACAUG”, the binding signal (log2 enrichment (interaction score)) in experiment [1] was -4.42; in experiment [2] it was -8.29.

Consider “GGCUAGAACUAGUGGAUCCCCCGGCGCCCGGCGGCUCGAGCCCGGGUAAGUUGCAAGAGUCUGCAUGCCGCCGGGCGCCAUGCCUGCAGGUCGACUCUAGAAAACAUG”, for which the binding signal (log2 enrichment (interaction score)) in experiment [1] is -5.8; in experiment [2] it was below -7.1.

Consider “GGCUAGAACUAGUGGAUCCCCCGGCGCCCGGCGGCUCGAGCCCGGGUAAGUGGACAACGUCUGCAUGCCGCCGGGCGCCAUGCCUGCAGGUCGACUCUAGAAAACAUG”, for which the binding signal (log2 enrichment (interaction score)) was -4.24 in experiment [1] and -6.83 in experiment [2].
